Small-molecule microarray binding calls

Targets (5′ to 3′):
PreQ1: PreQ1 riboswitch RNA pseudoknot, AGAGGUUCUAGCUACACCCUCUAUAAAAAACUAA. From B. subtilis. Hit rate about 0.7% of about 24,000 compounds.
TPP: TPP riboswitch RNA three-way junction, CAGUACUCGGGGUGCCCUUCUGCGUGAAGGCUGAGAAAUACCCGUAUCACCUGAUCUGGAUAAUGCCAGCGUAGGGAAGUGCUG. Hit rate about 0.7% of about 24,000 compounds.
SAM-II: SAM-II riboswitch RNA pseudoknot, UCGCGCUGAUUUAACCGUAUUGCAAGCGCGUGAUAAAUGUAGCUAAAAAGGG. Hit rate about 1% of about 21,000 compounds.

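Compounds were printed on reactive glass slides in duplicate spots, a dye-labelled oligonucleotide was laid over them, and the fluorescence left after washing was read. The data file lists only calls. An earlier report of the laboratory on the PreQ1, TPP and SAM-II riboswitches (doi:10.1038/s41467-019-09493-3) used 1 µM RNA for 2 h and required a mean Z-score above 3 (spot signal-to-noise against the whole library), a score well above that on a control array, and duplicate spots agreeing (coefficient of variation under 100); it then also set aside compounds that hit other targets, which this list keeps. The cut-offs behind this list may differ. A missing hit is not proof of no binding, and a hit is not a measured affinity.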
“active” means called a hit, “inactive” means screened and not called a hit.
Compounds were drawn at random from those tested, without regard to their results.
A target missing from an entry has no call listed here.

For COc1ccc(C2CC(=O)C=C(NCC(C)C)C2)cc1 (centres unmarked) the calls were PreQ1: inactive; TPP: inactive; SAM-II: inactive.
For CN(C)S(=O)(=O)c1ccc(CN2CC3(CCNCC3)CCC2=O)cc1 the calls were PreQ1: inactive; TPP: inactive; SAM-II: inactive.
For CCOC(=O)c1cccc(Nc2nc(-c3cccnc3)nc3ccccc23)c1 the calls were PreQ1: inactive; TPP: inactive; SAM-II: inactive.
For N[C@@H]1CC[C@H](C(=O)Nc2ccc3c(c2)C(=O)OC3)C1 the calls were PreQ1: inactive; TPP: inactive; SAM-II: inactive.
For COc1ccc(S(=O)(=O)c2cnc3ccc(F)cc3c2NCc2ccc(F)cc2)cc1 the calls were PreQ1: inactive; TPP: inactive.
For COc1ccc(OC)c(CNc2ncnc3onc(-c4ccc(Cl)cc4)c23)c1 the calls were PreQ1: inactive; TPP: inactive; SAM-II: inactive.
For COc1cc(-c2c(C#N)c(N)nc3c2COCC3)ccc1O the calls were PreQ1: inactive; TPP: inactive; SAM-II: inactive.
For CCc1noc(C)c1C(=O)N[C@H]1Cc2ccccc2[C@@H]1N the calls were PreQ1: inactive; TPP: inactive; SAM-II: inactive.
For c1cncc(OCCCn2ccnc2-c2cc3n(n2)CCNC3)c1 the calls were PreQ1: inactive; TPP: inactive; SAM-II: inactive.
For CN(CC(=O)NCc1ccc(Cl)cc1)S(=O)(=O)c1cc(Br)cnc1N the calls were PreQ1: inactive; TPP: inactive.
For Cn1cc(-c2ccc3ncc(Cc4ccc5ncccc5c4)n3n2)cn1 the calls were PreQ1: inactive; TPP: inactive; SAM-II: inactive.
For N[C@H]1CN(C(=O)c2[nH]c3ccccc3c2Cl)C[C@@H]1C1CC1 the calls were PreQ1: inactive; TPP: inactive; SAM-II: inactive.
For COc1ccccc1NC(c1cccc(Cl)c1)c1nnc(-c2ccccc2)o1 (centres unmarked) the calls were PreQ1: inactive; TPP: inactive; SAM-II: inactive.
For Cc1nc([N+](=O)[O-])cn1-c1nc2ccccn2c1[N+](=O)[O-] the calls were PreQ1: inactive; TPP: inactive; SAM-II: inactive.
For Cc1nc(C2=C(N)N(c3ccc(Oc4ccccc4)cc3)CC2=O)sc1C the calls were PreQ1: inactive; TPP: inactive.
For CCOC(=O)c1cnc(SC)nc1N the calls were PreQ1: inactive; TPP: inactive.
For CCOC(=O)N1CCN(c2c(NCCCN(C)c3ccccc3)c(=O)c2=O)CC1 the calls were PreQ1: inactive; TPP: inactive.
For CO[C@H]1C[C@@H](O)C12CCN(C(=O)Cn1nc(C)c(C(C)=O)c1C)CC2 the calls were PreQ1: inactive; TPP: inactive; SAM-II: inactive.
For Fc1ccc(CCNCc2ccc3[nH]ccc3c2)cc1 the calls were PreQ1: inactive; TPP: inactive; SAM-II: inactive.
For O=C(O)[C@]12CCCN[C@@H]1CCN(Cc1ccsc1)C2 the calls were PreQ1: inactive; TPP: inactive; SAM-II: inactive.
For CCN1CCCC1Cn1c(C)c(C)c(S(=O)(=O)c2ccccc2)c1N (centres unmarked) the calls were PreQ1: inactive; TPP: inactive; SAM-II: inactive.
For O=c1nc(CNc2ccc(Cl)cc2)[nH][nH]1 the calls were PreQ1: inactive; TPP: inactive; SAM-II: inactive.
For CCOC(=O)C1=C(N)OC(C)=C(C(=O)OC)C12C(=O)Nc1ccccc12 (centres unmarked) the calls were PreQ1: inactive; TPP: inactive; SAM-II: inactive.

Some entries from above, unchanged:

| structure | PreQ1 | TPP | SAM-II |
|---|---|---|---|
| `c1cncc(OCCCn2ccnc2-c2cc3n(n2)CCNC3)c1` | inactive | inactive | inactive |
| `Cn1cc(-c2ccc3ncc(Cc4ccc5ncccc5c4)n3n2)cn1` | inactive | inactive | inactive |

Calls as published in the ROBIN set (doi:10.1002/anie.202211358).